{"source": "patent US20250186600A1", "about": "“EXCIPIENT COMPOUNDS FOR PROTEIN FORMULATIONS” (Comera Life Sciences, Inc., priority 2020, published 2025)", "key": {"ustekinumab [1]": {"tested_on": "ustekinumab", "assay": "Urea denaturation, Sypro orange fluorescence (Example 44)", "type": "physicochemical", "settings": "excipient 5 mg/mL, ustekinumab 1 mg/mL, 6M urea, 20 mM histidine pH 6.0, Sypro orange fluorescence", "excerpt": "It is known that urea denatures proteins in solution and causes them to unfold. The screening methodology in this example involved adding a specific concentration of urea to a therapeutic protein solution such as ustekinumab. […] One method to track protein unfolding involves the use of extrinsic fluorescent dyes such as Sypro orange. Sypro orange binds to hydrophobic regions in the unfolded protein structure, leading to an increase in the fluorescence signal observed. Measuring the differences in the fluorescence intensity of unfolded protein-Sypro orange complex in presence of different excipients thus allows one to identify any stabilizing effects.\nAll excipients used in this Example, listed in Table 45 below, were of the highest purity, and were obtained from Sigma Aldrich (St. Louis, MO) or Cayman Chemical (Ann Arbor, MI). […] This urea stock solution was then added to a final concentration of 6M to produce the test solutions (excipient plus protein plus urea). […] The pH of the mixture was rechecked and confirmed to be at pH 6.0. The test solutions were allowed to incubate at room temperature for 30 min."}, "ustekinumab [2]": {"tested_on": "ustekinumab", "assay": "Thermal stability at 65° C., monomer by SE-HPLC (Example 46)", "type": "physicochemical", "settings": "excipient 5 mg/mL, ustekinumab 1 mg/mL, 20 mM histidine pH 6.0, incubated at 65° C.", "excerpt": "Therapeutic proteins are frequently subjected to fluctuations in temperatures which may lead to changes in tertiary and secondary structural elements. This can lead to aggregation of the protein and decrease the amount of active native protein. […] All excipients used in this Example, listed in Table 47 below, were of the highest purity, and were obtained from Sigma Aldrich (St. Louis, MO) or Cayman Chemical (Ann Arbor, MI)."}, "ustekinumab [3]": {"tested_on": "ustekinumab", "assay": "Stabilization at low pH, Sypro orange fluorescence (Example 45)", "settings": "excipient 5 mg/mL, ustekinumab 1 mg/mL, glycine acidification buffer pH 2.6, Sypro orange fluorescence"}}, "note": "At least one structure is not confirmed: it was looked up by name or label, or the drawing left a doubt."}
{"smiles": "NC(=O)c1ccc[n+]([C@@H]2O[C@H](COP(=O)([O-])OP(=O)(O)OC[C@H]3O[C@@H](n4cnc5c(N)ncnc54)[C@H](O)[C@@H]3O)[C@@H](O)[C@H]2O)c1", "note": "[Nicotinamide adenine dinucleotide]", "values": [{"measurement": "% increased stability", "setting": "ustekinumab [1]", "result": 32.5, "unit": "%"}, {"measurement": "Monomer Fraction % change from control", "setting": "ustekinumab [2]", "result": 9.1, "unit": "%"}]}
{"smiles": "Nc1ccn([C@@H]2O[C@H](CO)[C@@H](O)[C@H]2O)c(=O)n1", "note": "[Cytidine]", "values": [{"measurement": "% increased stability", "setting": "ustekinumab [1]", "result": 1.6, "unit": "%"}, {"measurement": "% change in stability", "setting": "ustekinumab [3]", "result": 79.8, "unit": "%"}]}
